PubChem BioAssay AID743454 – Peter MacCallum Cancer Centre, 2014
Test: 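Genes whose loss kills vorinostat-resistant colon cancer cells under vorinostat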 (primary screen). Cells: human HCT116-VR colon cancer cells, selected for vorinostat resistance. Knock-down reagent: siRNA pool against human genes, 40 nM siRNA pool. Time to read-out: vorinostat for 24 h, read-out about 72 h after transfection. Conditions: vorinostat at 2.5 µM final. Detection: 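Two measures, CellTiter-Fluor viability and luminescent caspase 3/7 activity, each as fold change against same-plate mock wells, mean of duplicates, then screen-wide robust z-score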. Reading the numbers: viability robust z-score: higher = more viable cells than screen typical; caspase robust z-score: higher = more caspase 3/7 activity than screen typical. Rule for the call: 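a knock-down is a hit when classed RV1 or RV2 for lowered viability, or CA1 or CA2 for caspase activation; those lethal without drug were dropped; hits were retested singly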.
In all, the deposit lists about 18,000 reagents; this is a random part of them. Over the whole deposit, 450 (2.5%) were called active. 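Single biological run; no consistent viability z cut-off exists, so the class columns, not z-scores, define the calls.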 Entries without a mark were called inactive.

target | viability hit class | caspase hit class | viability robust z-score | caspase robust z-score
CDH23 (cadherin related 23) | no change | no change | -1.27 | -1.36
POF1B (POF1B actin binding protein) | no change | no change | -0.44 | -0.85
CLGN (calmegin) | no change | no change | -1.04 | 0.05
AHR (aryl hydrocarbon receptor) | no change | no change | -1.12 | 0.38
AKT3 (AKT serine/threonine kinase 3) | no change | no change | 0.56 | -0.68
GYPA (glycophorin A (MNS blood group)) | no change | no change | 0.09 | -0.7
SH2D1B (SH2 domain containing 1B) | no change | no change | -0.58 | -0.64
ZNF519 (zinc finger protein 519) | no change | no change | 0.46 | -0.82
RNF11 (ring finger protein 11) | no change | no change | -0.13 | -0.73
FAM218A (family with sequence similarity 218 member A) | no change | no change | -0.27 | 0.71
C1orf74 (chromosome 1 open reading frame 74) | no change | no change | -0.38 | 1.88
DDX11 (DEAD/H-box helicase 11) | no change | no change | -0.45 | 1.4
FAM209A (family with sequence similarity 209 member A) | no change | no change | 0.53 | 4.73
NHS (NHS actin remodeling regulator) | no change | no change | 0.16 | -1.04
NARF (nuclear prelamin A recognition factor) | no change | no change | -0.37 | -0.21
OR5V1 (olfactory receptor family 5 subfamily V member 1) | no change | no change | -0.38 | -0.84
MYL1 (myosin light chain 1) | no change | no change | -1.36 | 0.38
RAB38 (RAB38, member RAS oncogene family) | no change | no change | -1.88 | -0.04
HAP1 (huntingtin associated protein 1) | no change | no change | -0.38 | 1.42
C19orf12 (chromosome 19 open reading frame 12) | no change | no change | -1.4 | 2.12
KRTAP9-2 (keratin associated protein 9-2) | no change | no change | 1.39 | -0.21
FAIM (Fas apoptotic inhibitory molecule) | no change | no change | -0.45 | 1.97
PDGFRB (platelet derived growth factor receptor beta) | no change | no change | -0.46 | -0.08
THY1 (Thy-1 cell surface antigen) | no change | no change | -0.03 | 0.02
PDCD7 (programmed cell death 7) | no change | no change | -1.52 | -1.56
ST6GAL1 (ST6 beta-galactoside alpha-2,6-sialyltransferase 1) | no change | no change | -1.31 | 3.68
PDXK (pyridoxal kinase) | no change | no change | 1.08 | -0.84
TBX3 (T-box transcription factor 3) | no change | no change | -0.04 | -0.62
NPPC (natriuretic peptide C) | no change | no change | -0.4 | -0.77
OR51E1 (olfactory receptor family 51 subfamily E member 1) | no change | no change | 1.07 | -0.77
FAS (Fas cell surface death receptor) | no change | no change | -0.93 | 4.42
SCN2A (sodium voltage-gated channel alpha subunit 2) | no change | no change | -0.96 | -1.27
ACO1 (aconitase 1) | no change | no change | -1.09 | -0.47
APOBEC3A (apolipoprotein B mRNA editing enzyme catalytic subunit 3A) | no change | no change | -1.5 | -1
PARD3 (par-3 family cell polarity regulator) | no change | no change | -0.73 | -1.21
CRYGN (crystallin gamma N) | no change | no change | -0.5 | 0.54
IKZF1 (IKAROS family zinc finger 1) | no change | no change | 0.59 | -0.4
SMURF2 (SMAD specific E3 ubiquitin protein ligase 2) | no change (active) | CA2 (caspase activation) | -1.94 | 6.31
NPY2R (neuropeptide Y receptor Y2) | no change | no change | -0.66 | -0.48
APCDD1L (APC down-regulated 1 like) | no change | no change | -0.9 | 1.21
KCNJ5-AS1 (KCNJ5 antisense RNA 1) | no change | no change | 0.02 | -0.98
UBQLN3 (ubiquilin 3) | no change | no change | 0.94 | -1.13
HES1 (hes family bHLH transcription factor 1) | no change | no change | -0.48 | 1.64
GPX3 (glutathione peroxidase 3) | no change | no change | -0.24 | -0.7
ZSCAN21 (zinc finger and SCAN domain containing 21) | no change | no change | -1.36 | -0.98
CT47A11 (cancer/testis antigen family 47 member A11) | no change | no change | 0.54 | -0.36
THNSL1 (threonine synthase like 1) | no change | no change | 0.7 | -0.9
JUND (JunD proto-oncogene, AP-1 transcription factor subunit) | no change | no change | -1.35 | 1.16
OTUD4 (OTU deubiquitinase 4) | no change | no change | 0.74 | -0.26
CD79B (CD79b molecule) | no change | no change | 1.04 | -0.48
ZNF319 (zinc finger protein 319) | no change | no change | 0.52 | -0.26
MPP1 (MAGUK p55 scaffold protein 1) | no change | no change | -1.38 | -0.94
PRR4 (proline rich 4) | no change | no change | 0.48 | 1.3
MAPK15 (mitogen-activated protein kinase 15) | no change | no change | 0.88 | -0.06
GJA1 (gap junction protein alpha 1) | no change | no change | 0.52 | -0.97
OR10Q1 (olfactory receptor family 10 subfamily Q member 1) | no change | no change | 0.02 | -0.81
KATNA1 (katanin catalytic subunit A1) | no change | no change | -0.94 | -1.23

8 entries already listed, ordered by “caspase robust z-score”, lowest first:
target | viability hit class | caspase hit class | viability robust z-score | caspase robust z-score
UBQLN3 (ubiquilin 3) | no change | no change | 0.94 | -1.13
ZSCAN21 (zinc finger and SCAN domain containing 21) | no change | no change | -1.36 | -0.98
THNSL1 (threonine synthase like 1) | no change | no change | 0.7 | -0.9
GPX3 (glutathione peroxidase 3) | no change | no change | -0.24 | -0.7
CT47A11 (cancer/testis antigen family 47 member A11) | no change | no change | 0.54 | -0.36
OTUD4 (OTU deubiquitinase 4) | no change | no change | 0.74 | -0.26
JUND (JunD proto-oncogene, AP-1 transcription factor subunit) | no change | no change | -1.35 | 1.16
HES1 (hes family bHLH transcription factor 1) | no change | no change | -0.48 | 1.64
